Some of the results follow. Further columns of the screen follow, without active or inactive calls. Most of these compounds were active or inconclusive in the main read-out, so they are no random draw. The note in brackets gives the kind of curve behind each potency; many fits are weak.
Experiment: qHTS Assay to Find Inhibitors of Chronic Active B-Cell Receptor Signaling
Details: ABC-DLBCL IkBa-CBG/CBR reporter, luminescence ratio (green luciferase fused to IkBa over red control in TMD8 lymphoma cells), 4 h
How it was run: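 TMD8 human ABC-DLBCL cells with doxycycline-inducible IκBα–green luciferase fusion and unfused red luciferase, in 0.5% FBS medium; compounds up to 46 uM, 4 h at 37C. Green/red luminescence ratio, filter-overlap corrected, fitted to concentration-response curves.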

[1] = measured here: CBR red luminescence, cell number
[2] = measured here: IkBa-CBG green luminescence

Structure (SMILES)	AC50 [1]	AC50 [2]
COC(=O)CSCC(=O)Nc1nnc(-c2cccc(C)c2)s1	8.91 µM [falling, partial curve]	
CCN(CC)C(=O)c1sc(NC(=O)c2cccs2)c(C#N)c1C	3.55 µM [falling, partial curve, poor fit]	
Cc1cccc(CSC2=CS(=O)(=O)c3ccccc3N2)c1	0.126 µM [falling, full curve, poor fit]	
COc1ccc(Nc2nc(N3CCN(S(=O)(=O)N(C)C)CC3)nc3ccccc23)cc1	1.12 µM [rising, partial curve, poor fit]	
CC(O)CNCc1cccc2ccccc12 (stereo not drawn)	0.00461 µM [rising, full curve, poor fit]	
O=[N+]([O-])c1cc(C(F)(F)F)ccc1-n1nnc2ccccc21	4.11 µM [rising, full curve, poor fit]	
O=C(NCc1ccco1)c1cccn2c(=O)c3c4c(sc3nc12)CCCC4	15.8 µM [falling, partial curve, poor fit]	
O=C(O)CC/C(=N/Nc1ccc([N+](=O)[O-])cc1)C(=O)O	11.2 µM [rising, partial curve, poor fit]	
COc1ccc(N2C3=C(CC4=C2CC(C)(C)CC4=O)C(=O)CC(C)(C)C3)cc1		35.5 µM [rising, partial curve, poor fit]
COc1ccc(C(c2nnnn2C2CCCCC2)N2CCN(C)CC2)c(OC)c1 (stereo not drawn)	35.5 µM [falling, single point]	
CC(c1ccccc1)N(CCC(c1ccccc1)C1CCOC(C)(C)C1)C(=O)c1ccco1 (stereo not drawn)	13 µM [falling, partial curve]	
N#Cc1c(-c2ccccc2)cc(-c2cccs2)nc1SCC(=O)O	0.708 µM [falling, full curve, poor fit]	
COc1ccccc1OCc1nnc(SCC(=O)Nc2ccc(C)cc2)n1C	10 µM [rising, partial curve, poor fit]	
COc1ccc2ccc(OCC(=O)N3c4ccccc4NC(=O)CC3C)cc2c1 (stereo not drawn)	6.51 µM [falling, partial curve, poor fit]	
Cc1sc2nc(C3CC3)nc(NCCNS(=O)(=O)c3ccccc3)c2c1C	16.4 µM [falling, single point]	
COC(=O)c1c(NC(=O)CC2Nc3ccccc3NC2=O)sc(C)c1C (stereo not drawn)	1.26 µM [falling, full curve, poor fit]	
CCOC(=O)c1c(NC(=O)CSc2nc3c(c(=O)n(C)c(=O)n3C)n2C(C)C)sc(C)c1C	0.366 µM [rising, full curve, poor fit]	
S=C(Nc1ccccc1)c1ccccn1	25.9 µM [rising, single point]	6.31 µM [falling, single point]
O=C(N/N=C/c1cc2c(cc1Br)OCO2)c1ccccn1	11.2 µM [falling, partial curve, poor fit]	
Cc1cc(C)cc(Oc2ccccc2/C=N\O)c1	6.51 µM [rising, partial curve]	
Cc1cc(C)c(NC(=O)C2CCCN2CCOC(=O)c2cccc([N+](=O)[O-])c2)c(C)c1 (stereo not drawn)	16.4 µM [falling, single point]	

Structure (SMILES)	AC50 [1]	AC50 [2]
OC[C@@H]1[C@@H](c2ccccc2)C(c2cccc(Cl)c2)=NN1c1ccccc1	29.1 µM [falling, single point]	
Cc1cc(NC(=O)CC2CCCC2)ccc1Br	1.58 µM [rising, partial curve, poor fit]	
Cc1nn(-c2ccccc2)c(C)c1CNC(=O)c1ccc(S(=O)(=O)NCc2ccco2)cc1	29.1 µM [rising, single point]	
COC(=O)c1ccc(C2/C(=C(/O)c3ccc(OC)cc3)C(=O)C(=O)N2Cc2ccco2)cc1 (stereo not drawn)	8.91 µM [falling, partial curve]	
CC(=O)N=C1SC2CS(=O)(=O)CC2N1Cc1ccc(C)cc1 (stereo not drawn)	0.501 µM [rising, full curve, poor fit]	
Cc1ccc(C(=O)NCN2CCN(c3ccc(F)cc3)CC2)cc1	25.9 µM [rising, single point]	
Cc1cc(NC(=O)CSc2ccc(Cl)cc2)no1	10.3 µM [rising, partial curve, poor fit]	
CCOC(=O)c1cccc(N2C(=O)C3C4C=CC(CC4)C3C2=O)c1 (stereo not drawn)	3.98 µM [falling, single point]	
O=C(O)c1ccccc1C(=O)Nc1nc(-c2ccccc2)cs1	11.2 µM [falling, partial curve]	
CCOC(=O)N1CCN(C(=O)C2CCN(C(=O)c3ccc([N+](=O)[O-])cc3)CC2)CC1	0.794 µM [rising, full curve, poor fit]	
C#CCOCCOCCOCCNc1nc(N2CCN(C(=O)CCCCCCCCCCNC(=O)Cn3cc(CCCCCN)nn3)CC2)nc(N2CCN(C(=O)CCCCCCCCCCNC(=O)Cn3cc(CCCCCN)nn3)CC2)n1	5.17 µM [rising, partial curve, poor fit]	
Cc1nc2ccccc2c2c1C(=O)N(C)C2=O	9.2 µM [falling, partial curve, poor fit]	
Cc1nccc(-c2ccc(-n3cnc4ccccc43)cc2)n1	0.00517 µM [rising, full curve, poor fit]	
C#CCOCCOCCOCCNc1nc(N2CCN(C(=O)CCCCCCCCCCNC(=O)Cn3cc(C[C@@H](C)O)nn3)CC2)nc(N2CCN(C(=O)CCCCCCCCCCNC(=O)[C@@H](CCC(=O)O)n3cc(CCCCCN)nn3)CC2)n1	2.59 µM [rising, partial curve, poor fit]	
Cc1ccccc1-c1nnc(SC(C)C(=O)NC2CCCC2)o1 (stereo not drawn)	9.2 µM [rising, partial curve]	
CCC/C=C1/CCCOC(C(=O)NCc2ccc(C)o2)(C(F)(F)F)C1 (stereo not drawn)	29.1 µM [falling, partial curve, poor fit]	
FC(F)(F)c1cccc(Cc2noc(CN3CCCC(CN4CCCC4)C3)n2)c1 (stereo not drawn)	7.08 µM [falling, partial curve, poor fit]	
Cc1cccc(Nc2nc(-c3ccccc3)cs2)n1	0.282 µM [falling, full curve, poor fit]	
CN(C(=O)COC(=O)CNC(=O)CNC(=O)c1ccc(Cl)cc1Cl)c1ccccc1	12.6 µM [rising, partial curve, poor fit]	
COc1ccc2c(=O)cc(-c3ccccc3F)oc2c1	1.41 µM [falling, full curve, poor fit]	
COc1ccc(OC)c(NC(=O)C2CC2c2ccccc2)c1 (stereo not drawn)	15.8 µM [rising, single point]	

An excerpt from above in order of SMILES length, falling.
Structure (SMILES)	AC50 [1]	AC50 [2]
C#CCOCCOCCOCCNc1nc(N2CCN(C(=O)CCCCCCCCCCNC(=O)Cn3cc(C[C@@H](C)O)nn3)CC2)nc(N2CCN(C(=O)CCCCCCCCCCNC(=O)[C@@H](CCC(=O)O)n3cc(CCCCCN)nn3)CC2)n1	2.59 µM [rising, partial curve, poor fit]	
COc1ccc2ccc(OCC(=O)N3c4ccccc4NC(=O)CC3C)cc2c1 (stereo not drawn)	6.51 µM [falling, partial curve, poor fit]	
COc1ccccc1OCc1nnc(SCC(=O)Nc2ccc(C)cc2)n1C	10 µM [rising, partial curve, poor fit]	
CC(=O)N=C1SC2CS(=O)(=O)CC2N1Cc1ccc(C)cc1 (stereo not drawn)	0.501 µM [rising, full curve, poor fit]	
COc1ccc2c(=O)cc(-c3ccccc3F)oc2c1	1.41 µM [falling, full curve, poor fit]	

Carrying on:

Structure (SMILES)	AC50 [1]	AC50 [2]
COc1cccc(CNC(=O)CCC2CCCN(C(=O)c3cc4ccccc4o3)C2)c1 (stereo not drawn)	35.5 µM [falling, single point]	
O=C(c1cc2cc([N+](=O)[O-])ccc2s1)N1CCCCC1	3.16 µM [rising, single point]	
O=C(Cn1c(=O)oc2cc(S(=O)(=O)NCc3ccccc3)ccc21)N(CCO)Cc1ccccc1	35.5 µM [falling, single point]	
Cc1cc2c(=O)n(CC(=O)N3CCN(c4ccccc4)CC3)cnc2s1	0.731 µM [falling, partial curve, poor fit]	
C[N+]1(CC(=O)OC2CCCCCCCCCCC2)CCCC1	0.1 µM [falling, full curve, poor fit]	
O=C(Nn1c(SCc2ccc([N+](=O)[O-])cc2)nc2ccccc2c1=O)c1ccc(F)cc1	9.2 µM [falling, partial curve, poor fit]	
C=C(C)C(O)COc1c2occc2c(OC)c2ccc(=O)oc12 (stereo not drawn)	0.092 µM [rising, full curve, poor fit]	
C/C(=N\Nc1nc(-c2ccccc2)cs1)c1cccs1	0.058 µM [falling, full curve]	
O=S1(=O)CCOC[C@H](CC2CCCCC2)N1Cc1cccc(Cl)c1	14.1 µM [falling, partial curve]	
CCC1=C(OC(=O)N(CC)CC)N2C(=O)OC(=NCC3CC3)[C@]2(C)[C@H]2C1=CC[C@H]1C(=O)N(C)C(=O)[C@H]12	0.891 µM [rising, full curve]	
COc1ccccc1NC(=O)N1CCc2c([nH]c3ccccc23)C1C(F)(F)F (stereo not drawn)	4.47 µM [falling, partial curve]	
O=C(Cn1cc(C(F)(F)F)ccc1=O)Nc1ccccc1	35.5 µM [falling, single point]	
O=C(Cc1cccs1)N1CCN(C(=O)C2CCCO2)CC1 (stereo not drawn)	23.1 µM [rising, single point]	
CC1=C(Nc2ccc(C(=O)O)cc2)C(=O)c2ccccc2C1=O	7.94 µM [falling, partial curve, poor fit]	
CCc1ccc(NC2=NC(C(=O)NC3CCCCC3)CC(=O)N2)cc1 (stereo not drawn)	29.1 µM [rising, single point]	
O=C(CN1CCN(S(=O)(=O)c2ccc(F)cc2)CC1)Nc1ccccc1C(=O)NC1CC1	0.291 µM [rising, full curve, poor fit]	
CS/C(N)=N/N=C/c1cc(C)ccc1O	11.2 µM [falling, partial curve]	35.5 µM [falling, single point]
NC(=O)C1(c2ccccc2)CCC(=O)N1c1ccccc1 (stereo not drawn)	5.01 µM [rising, single point]	
O=C(c1ncc[nH]1)c1ccccc1Cl	35.5 µM [rising, single point]	

From PubChem BioAssay AID493014 (National Center for Advancing Translational Sciences (NCATS), 2011)
